Test results taken from the supplement of paper PMC10338343.
± gives the standard deviation. The list shows a part of the results. Many entries were measured with a wide error.

System: EfPiwi piRISC loaded with L1MC piRNA (26 nt)
Test: pre-steady-state target cleavage rate (min^-1); guide: L1MC piRNA 5'p-UAACUAAAUACUAUGCAAGCUGUAGG; MIWI and MILI are mouse PIWI proteins and EfPiwi is from a freshwater sponge; tags in brackets are library labels; higher = faster piRNA-guided slicing of the target
Summary of the method: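 Using HEPES–potassium acetate buffer at 33 °C, 1 nM active affinity-purified piRISC with a single synthetic guide was mixed with 0.1 nM transcribed, DNA-blocked target RNA library for 0–8 or 0–960 min, with or without 500 nM GTSF1 partner protein. Uncleaved targets were sequenced and normalised to depth and to weakly complementary targets, and three trials were pooled with k3 capped at 0.0001 min^-1. A burst-and-steady-state fit gave the pre-steady-state cleavage rate.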

[1] = auxiliary factor: 500 nM Ephydatia muelleri Gtsf1
[2] = auxiliary factor: none (no Gtsf1)

Sequence	pre-steady-state target cleavage rate [1]	pre-steady-state target cleavage rate [2]
UCCUGGAUGUCGAACGUAAGUAUUAUAGUUA	0.000133 ± 0.043	
UCCUGGUACAGCUUGCAUACUAUUUACUUA	0.00126 ± 0.006	
UCCUGGAAGCAGCUUGCAUAGUAUUUAGUUA	0.0569 ± 0.013	
UCCUGGAUGUCGAACGUUAGUAAAAAGUUA	< 0.0001	
UCCUGCUACAACUUGCAUAGUAUUUAGUUA	0.00776 ± 0.0029	
UCCUCCUACAGCUUGCAUAGUAUAAAGUUA	0.00527 ± 0.0031	
UCCUGGUACAGCAUGCAUAGUAUUUUGUUA	0.00273 ± 0.0034	
UCCUGGAUGAGCUUCGAUAGUAUUUAGAAA	0.00142 ± 0.0066	
UCCUGGUACUGGUUGCAUAGUAUUUAGUUA		0.000873 ± 0.013
UCCUGGUACAGGUUGCAUUGUAUUUAGUUA		0.000291 ± 0.042
UCCUGGUACAGCUUCGCAUAGUAUUUAGUUA	0.038 ± 0.0086	
UCCUGGAUGUCGAACGAUAGUGAUUUAGUUA	< 0.0001	
UCCUGCUUCAGCUUGCAUAGUUUUUAGUUA		0.000606 ± 0.01
UCCUGGUUCAGCUUGCAUAGUAUUAAGUUA	0.00579 ± 0.0021	
UCCUGGAACAGGUUGCAUAGUAAUUAGUUA	0.0061 ± 0.0024	
UCCUCGUACAGGUUGCAUAGUAUUUAGUUA	0.0399 ± 0.0088	
UCCUGGUACUGCUUGCAUUGUAUUUAGUUA		0.00047 ± 0.022
UCCUGGAUGUCGAUCCAUAGAAUUUAGUUA	0.000314 ± 0.017	
UCCUGCUACAGCUUGCAUAGUAUUUUGUUA	0.00916 ± 0.0029	
UCCUGGAUGUCGAACCAUACGUAUUUAGUUA		< 0.0001
UCCUGGUACAGCUUGCUAAGUAUUUAGUUA	0.000808 ± 0.0055	
UCCUGGAACAGCUUGCAUAGUAUUUAGUUUA	0.0245 ± 0.0071	
UCCUGGAUGUCGUUUGCAUAGUAUUUAGUUA	0.0445 ± 0.013	
UCCUGGAUCAGCUUGCAUAGUAUUUAGAUA	0.00499 ± 0.0022	
